Publication PMC4034419

Tests used:
Experiment in all cases: not stated (data not shown)
Conditions in all cases: 5 deoxyuridines (U at 6, 11, 14, 17 as printed; text states 5 uracils); 20 mM Tris-HCl pH 8.5, 10 mM KCl, 10 mM (NH4)2SO4 (ionic strength 40); 10 nM Hex primer-template; recombinant protein; single-stranded DNA
[1] = target: Pfu-Pol L381R/K502R (Pyrococcus furiosus) (UniProt P61875)
[2] = target: Pfu-Pol M247R/L381R (Pyrococcus furiosus) (UniProt P61875)
[3] = target: Pfu-Pol wild type (family-B DNA polymerase) (Pyrococcus furiosus) (UniProt P61875)
[4] = target: T1, Tkod-Pol wild type (family-B DNA polymerase) (Thermococcus kodakarensis) (UniProt D0VWU9)
T1 sequence (looked up, limits assumed): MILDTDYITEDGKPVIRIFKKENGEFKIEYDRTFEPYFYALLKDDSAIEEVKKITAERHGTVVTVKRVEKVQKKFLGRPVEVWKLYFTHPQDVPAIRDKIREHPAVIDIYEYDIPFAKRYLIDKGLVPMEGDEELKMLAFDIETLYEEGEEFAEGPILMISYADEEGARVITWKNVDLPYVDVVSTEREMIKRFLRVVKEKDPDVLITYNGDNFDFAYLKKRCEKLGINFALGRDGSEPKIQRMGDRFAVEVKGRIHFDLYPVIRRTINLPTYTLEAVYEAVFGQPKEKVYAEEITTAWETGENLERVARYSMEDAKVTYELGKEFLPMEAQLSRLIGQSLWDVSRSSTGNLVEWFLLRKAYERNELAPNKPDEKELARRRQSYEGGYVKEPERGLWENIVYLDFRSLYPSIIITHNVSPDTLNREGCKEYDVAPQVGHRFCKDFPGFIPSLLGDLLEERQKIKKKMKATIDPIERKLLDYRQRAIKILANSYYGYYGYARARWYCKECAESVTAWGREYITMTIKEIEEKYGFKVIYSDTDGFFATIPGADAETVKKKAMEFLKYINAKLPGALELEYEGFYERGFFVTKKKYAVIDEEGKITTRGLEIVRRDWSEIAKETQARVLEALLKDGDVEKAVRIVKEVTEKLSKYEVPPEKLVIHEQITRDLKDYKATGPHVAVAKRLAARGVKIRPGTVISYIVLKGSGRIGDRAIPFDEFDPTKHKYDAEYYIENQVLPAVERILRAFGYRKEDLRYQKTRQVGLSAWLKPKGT

Measured: binding result

GTTGGUACUCTUAGUCTUTAGGT [uracil-rich trap 23-mer]
binds: all assays above

The exact form of at least one protein or probe is not confirmed. At least one verdict was read from the data and is not stated in words by the source. For some of these results: Protein sequences can lack the tags named with them.
